In all, about 33,000 sequences were measured (“E-score (-0.5 to 0.5)”: median about -0.0014, highest 2% from about 0.25 on). The list shows a part of the results.
Target: T1, Cad1 (UniProt P24813)
T1 sequence: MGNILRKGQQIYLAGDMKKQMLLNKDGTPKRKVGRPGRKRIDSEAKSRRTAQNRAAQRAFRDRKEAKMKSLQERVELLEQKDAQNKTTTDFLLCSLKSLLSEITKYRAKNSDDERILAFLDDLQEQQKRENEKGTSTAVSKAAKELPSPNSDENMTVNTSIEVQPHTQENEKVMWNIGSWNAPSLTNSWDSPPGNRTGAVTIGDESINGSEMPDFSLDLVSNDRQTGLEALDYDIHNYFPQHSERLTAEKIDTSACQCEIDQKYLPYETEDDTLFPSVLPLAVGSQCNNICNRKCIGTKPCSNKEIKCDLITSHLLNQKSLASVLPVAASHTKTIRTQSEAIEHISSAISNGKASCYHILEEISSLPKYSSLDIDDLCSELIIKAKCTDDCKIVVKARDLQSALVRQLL
Test: PBM E-score (8-mer binding enrichment) (E-score (-0.5 to 0.5)); higher = stronger / more preferred TF binding
Details: protein concentration: 100 nM; construct: GST-full length
Method in brief: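 Using PURExpress in vitro transcription/translation, GST-tagged yeast transcription factors were made in full-length or DNA-binding-domain form. These were applied at about 100-200 nM to double-stranded universal all-10-mer Agilent arrays, and bound protein was detected with fluorescent anti-GST. Scans were normalised with masliner before the Universal PBM Analysis Suite assigned E-scores to ungapped eight-base words pooled with their reverse complements.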

Sequence | PBM E-score
CCCCCGCC | -0.45
CCAAGTAA | 0.189
GTGCCCAC | -0.127
CTTTTAGA | 0.0604
TAATGAGA | 0.198
CCTGGTCC | -0.189
CAAGTCTA | -0.0431
TAGGGCGA | -0.0704
GGCTCTCA | -0.184
CATACTTA | 0.0592
AATCTGAC | -0.0425
AGTGATTA | 0.287
CCCTCCGA | -0.00645
CGACTATC | 0.0661
ATAGAAAT | 0.138
ATCCCCAA | 0.0632
AACACGCT | -0.0413
AATCATAC | 0.0986
ACCGTCTA | -0.0285
GAGCACGC | -0.0437
AAAGTCGA | -0.0137
ACTCTAGC | -0.206
CTTTTCTC | 0.00327
CTGTGTCC | -0.0935
TAGCCCTA | -0.125
ACTCGGTA | -0.129

Sequence | PBM E-score
AAGATCAG | -0.0875
CTCTGATA | 0.0204
CGCGCAGC | 0.103
CCTATTCG | -0.131
TGATGACA | 0.138
GCCCGCTA | -0.198
CGAATTAC | 0.0357
ACTTATGC | 0.0932
GAGATATC | 0.124
CGCCGTAG | 0.141
CAAAACTC | 0.0401
GGCGAACC | -0.0475
TCCCGCGA | 0.0875
CACAAATA | 0.259
GCGTCGCA | -0.0396
ACCAATAC | -0.106
TTAACAAA | 0.0927
CGATACAA | 0.0958
AGAGAGCA | -0.147
ACAATACA | 0.0445
AGGGTGCG | -0.215
CGGGTCCA | -0.209
CCGCGCGG | 0.417
CCACCAGC | 0.0562
GACGCCGA | 0.147
GCCGGGAC | -0.0972

Sequence | PBM E-score
AAGGCCAC | -0.0006
AGGAGCGG | -0.293
ATGCCACA | -0.0517
GGAGGTAC | -0.249
GAAACTGC | -0.218
CGAGTTCC | 0.151
TAATCATA | 0.226
CCCCATTC | -0.136
ATAGGGCA | -0.17
CCATACCG | 0.124
AACAGCAT | 0.0296
GCATGACC | -0.103
GACCGTCA | -0.0457
AGTTAACA | 0.227
GTAAACAC | 0.0828
CACTTTCA | -0.0209
TATGAATA | 0.0654
AGTACCTA | 0.00584
AGCGAACT | -0.0333
GACATATC | 0.18
CAGAACAA | 0.171
CCTCGAGC | 0.193
AGCCAACG | -0.00425
ACGGGATA | 0.127
ATAAGGTC | 0.0363
AGTACTTA | -0.0184

Sequence | PBM E-score
CCCAGGAG | -0.311
CCAGGGCA | -0.112
GTGCTAAA | 0.00617
ACCACTAC | -0.0541
CATAGCCG | 0.161
CCCTCGAA | -0.239
GCAACTTA | 0.135
GCTCCGCA | -0.0229
ATGCATTC | 0.196
AATGACCA | 0.0454
CGTGCACA | 0.0473
AGTTCGAC | 0.143
TCGGAAAA | 0.224
AGTCAAAC | -0.142
GCAAACAA | 0.108
ATCTTTGC | 0.208
ACGTTTAA | 0.0129
CTCGTTAA | -0.112
AATTCGGA | 0.12
GGCGTCCA | 0.0032
CAACGTTG | 0.263
CGGATCAG | 0.119
GATAAACA | 0.0427
ACATAGGG | -0.125
GCTTTACA | 0.0167
GGCAACTA | 0.123

Retrieved one by one from the list above:
Sequence | PBM E-score
CTTTTCTC | 0.00327
CCAAGTAA | 0.189
TAATCATA | 0.226
ATCTTTGC | 0.208
AGTTCGAC | 0.143

(continued)

Sequence | PBM E-score
ACGGGTAT | 0.00144
CAACATCG | 0.0708
CAACCAGA | 0.0341
AGCCTTGG | -0.11
CCCAGAAG | -0.215
AAGTGTCC | -0.104
AGAATACT | 0.0925
AACTAGTA | 0.102
CCCATTGA | -0.0726
GCCATCAC | -0.0652
ATGTATGA | 0.195
GCACTCTA | 0.044
CAACTAAA | 0.102
AACGAGTT | -0.105
CAAGTAAC | -0.0682
CGAGGCTA | 0.00656
GGCGTCAC | -0.0338
GGGCCCTA | -0.161
AACGAAAC | 0.187
AAACTTTG | 0.0979
GCTCCAAC | -0.0475
GTAACCTA | 0.0751
AACATCTC | -0.0577
CTGAGCCA | -0.0756
TGAAAGCA | 0.222
ACGATCAG | -0.0172

Sequence | PBM E-score
GCCATAAC | -0.0858
AAGCGCAC | 0.0605
CAGGCGCC | 0.049
GAGCACTC | 0.00589
GGACACCA | 0.0773
CTTGATAC | 0.0152
ACGAGCTA | -0.0731
GAAATCCC | -0.147
GGTCTGGA | -0.144
ATGTTAAG | 0.0835
TACTCATA | 0.012
CTTCCACA | -0.0588
ATCGCCAC | 0.182
AGGATTAC | 0.0918
CCTAAAAC | -0.104
AGTGCACT | 0.0106
CAGGTTGC | 0.0768
GGCCACCC | -0.135
CCGGCTAG | -0.00514
GGGAGAAA | -0.151
GTGTATTA | 0.247
GACCTATA | 0.137
ACTGAACT | 0.0418
AGGCTGCA | -0.008
AGCGGCCG | 0.152
CGGCTTCC | -0.0843

Sequence | PBM E-score
AACCCTCA | 0.00268
GCGCTAGC | 0.038
CGCAGCCC | 0.0695
GGCCGACA | -0.0392
GGACAGCC | -0.0133
ATCTGGAG | -0.084
TAGGTTGA | 0.0128
CCGTGTGC | -0.0553
GCAAGACC | 0.0306
CCTTCGGC | -0.145
CACATTGG | 0.0699
ATCAATCA | 0.13
CGGCTGAA | -0.0881
AAATCACT | 0.141
ACGCTCCT | -0.0254
CTGTCTCC | -0.102
TACAGGTA | -0.0331
CATCGCGG | 0.189
ATGCCATG | 0.115
TGCTGAAA | -0.0176
AGCGCATC | 0.0309
GGCGCCCC | -0.173
CGAGACGA | 0.0054
ATTAGGCA | -0.0653
AGGAATAT | 0.191
GCTTGCAC | -0.00949

Sequence | PBM E-score
CCTATCAC | -0.0733
AAACCGGC | 0.0007
TCTATGCA | 0.0316
ACACTAAG | 0.00509
CTGTACCA | -0.154
AATGCTGC | 0.0933
CACGCGTA | 0.124
ATGACGTG | 0.117
GACCACGA | 0.0423
ACGAAGCC | -0.146
GGCATTCA | -0.133
GCAGTGAC | 0.0371
GTGCTAGA | -0.253
GGAAAAAC | 0.141
AGCGCAAA | 0.189
AACTAGAT | 0.0841
GACGGCGC | -0.0139
CCCATACC | -0.0736
GAACATCC | 0.193
TCCTTACA | 0.00161
CGTCCTAC | -0.0724
AGACCAGG | -0.182
ATAGTAAT | 0.217
AGTTACAA | 0.0164
ATCTGGAA | -0.0375
CCGTACAC | 0.0248

Sequence | PBM E-score
CAAGGGGG | -0.39
GCCACGCA | -0.0565
AAGTGTGA | -0.128
CCAGTTCC | 0.0254
CGGCGGCA | 0.0859
CGGCAGTC | -0.0443
TATAGCCA | 0.126
ATACGTTG | -0.0524
CGCATCAC | -0.0751
ATCTCGCC | -0.0589
TCCGGCCA | -0.157
AAACCTTT | -0.167
AAAGATCT | -0.0667
TACTTATA | 0.0796
CATGTCGA | 0.134
TAATTTGA | 0.106
CGTCAAAC | -0.0838
AACCGCTA | -0.126
CGCTGCGC | -0.0164
AAGTCGAA | -0.0588
ATCAATAA | 0.186
GCTGTCCA | -0.0173
TCAGTCCA | -0.182
CTTTGAAA | 0.116
AACCAATT | 0.297
AAGCTAGT | 0.125

In another format: results already given
Sequence	PBM E-score
CGCTGCGC	-0.0164
AAGTCGAA	-0.0588
ATCAATAA	0.186
GCTGTCCA	-0.0173

(listing goes on)

Sequence | PBM E-score
CCAGTTTA | -0.0989
AACTTCTA | -0.118
TAATACCA | 0.213
AGCGTCGG | 0.0643
ACAGAGAG | -0.283
CCATGTTA | 0.0237
AGCGATAG | -0.0389
CCTCGTAA | 0.136
CGCAGGCG | -0.151
ACGAGACC | -0.00034
AGGACCTA | 0.025
TAGGCGAA | -0.123
GCGGTCAC | -0.166
AGGTCACA | -0.217
AATGACAA | 0.201
CAGGGCGG | -0.185
AACAACGA | 0.105
ACTAGTGG | 0.0192
AGTCTGTC | 0.0174
AGAGACGG | 0.0418

— the supplement of paper PMC3334620
